Hit rate of the full screen: of about 580,000 compounds, about 6,100 (1.1%) were called active. This list was built around the results that the source calls inconclusive (neither active nor inactive); the mix of calls is not that of the screen. Calls follow the shape of the dose curve; as a rule, active = well fitted inhibition curve with a large enough effect; inconclusive = small, poorly fitted or top-dose-only effect, or another doubt; inactive = no such curve, though single readings can be large or run the other way. Potencies beside an inconclusive call are fits to weak or partial responses and may not hold up.
Biological target: Polyunsaturated fatty acid lipoxygenase ALOX12 (Homo sapiens) (UniProt P18054)
Assay: Primary qHTS assay for inhibitors of human arachidonate 12S-lipoxygenase (ALOX12): Round 2
Settings: purified 12hLO, xylenol orange hydroperoxide absorbance; activity change, negative = inhibition: at 108 µM (top of the series) unless noted
Procedure, shortened: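 Hydroperoxide product was detected by ferrous iron/xylenol orange as the 573 to 405 nm absorbance ratio. Arachidonic acid at 40 uM (final) was turned over for 30 min at room temperature by 150 nM human 12hLO, pH 7.0 Hepes buffer, after 15 min compound preincubation.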
% is scaled to controls: 0 for no effect and ±100 for the full control effect; potency is read from the fitted curve at half-maximal effect.

Protein sequences, listed by entry. Tags and fused reporters are not part of them.
UniProt P18054, whole entry, looked up: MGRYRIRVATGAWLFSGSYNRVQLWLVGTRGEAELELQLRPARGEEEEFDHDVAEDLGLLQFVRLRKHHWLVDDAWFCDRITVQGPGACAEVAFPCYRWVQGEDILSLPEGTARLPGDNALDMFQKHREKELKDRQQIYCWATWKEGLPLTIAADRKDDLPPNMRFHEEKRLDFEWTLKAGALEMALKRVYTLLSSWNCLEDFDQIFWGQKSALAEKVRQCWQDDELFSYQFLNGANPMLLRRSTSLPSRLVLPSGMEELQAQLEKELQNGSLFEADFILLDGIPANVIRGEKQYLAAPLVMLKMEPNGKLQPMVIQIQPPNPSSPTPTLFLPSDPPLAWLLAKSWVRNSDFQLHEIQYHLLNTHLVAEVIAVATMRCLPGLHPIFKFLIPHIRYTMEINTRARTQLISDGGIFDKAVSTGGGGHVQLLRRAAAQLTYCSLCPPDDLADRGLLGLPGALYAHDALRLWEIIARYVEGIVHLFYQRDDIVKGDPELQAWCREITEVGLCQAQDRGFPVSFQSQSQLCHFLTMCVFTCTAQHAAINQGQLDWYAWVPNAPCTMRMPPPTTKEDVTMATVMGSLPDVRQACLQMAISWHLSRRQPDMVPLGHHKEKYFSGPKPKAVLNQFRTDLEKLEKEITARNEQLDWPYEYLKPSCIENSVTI

**Q.** `O=C(NC12CC3CC(CC(C3)C1)C2)C1CC(=O)N(c2ccccc2)C1` (stereo not drawn) was tested. Which Potency did it give?
**A.** inactive

**Q.** Which Potency does the source give for `Cc1cc(C)n(CCC(=O)N2c3ccccc3CC2c2noc(C3CCOCC3)n2)n1` (stereo not drawn) here?
**A.** inconclusive: 7.94 µM [inhibitor, full curve]

**Q.** `COc1ccc(-c2cnc3c(NC(C)=O)cc(-c4cc(F)ccc4OC)cn23)cc1OC` was tested. Which Potency did it give?
**A.** inconclusive: 50.1 µM [inhibitor, partial curve, poor fit]

**Q.** How did the Potency turn out when `COc1ccc(Nc2cc(C)nc(Nc3ccc(NC(=O)CCc4ccccc4)cc3)n2)cc1` was run?
**A.** inconclusive: 70.8 µM [inhibitor, partial curve, poor fit]

**Q.** For `CNc1ccc2c3c(cccc13)C(=O)N(C)C2=O`, which Potency is on record?
**A.** inactive

**Q.** With `CCOC(=O)c1c(NC(=O)N2CCN(CC)CC2)sc(C)c1C` as the molecule, how does the Potency read?
**A.** inconclusive: 35.5 µM [inhibitor, single point]

**Q.** With `CN(C)S(=O)(=O)c1ccc(NC(=O)COc2ncnc3ccc(Br)cc23)cc1` as the molecule, how does the Potency read?
**A.** inconclusive: 89.1 µM [inhibitor, partial curve, poor fit]

**Q.** For `CCc1ccc(C2=C(C)C(N3CCC(C(=O)Nc4ccc(OC)c(OC)c4)CC3)=NS2(=O)=O)cc1`, which Potency is on record?
**A.** inconclusive: 79.4 µM [inhibitor, partial curve, poor fit]

**Q.** With `C/C=C(/C)C(=O)Nc1cccc(C2=NOC3(C2)C[C@H](C(N)=O)N(C(=O)c2ccc(Cl)cc2)C3)c1` (stereo partly drawn) as the molecule, how does the Potency read?
**A.** inconclusive: 100 µM [inhibitor, single point]

**Q.** For `CS(=O)(=O)N(CC(=O)Nc1cccc(Cl)c1)c1ccccc1Cl`, which Potency is on record?
**A.** inconclusive: 89.1 µM [inhibitor, single point]

**Q.** `Cc1cccc(CN2CCCC3(CCN(C(=O)CCc4ccccc4C)C3)C2)c1` (stereo not drawn) was tested. Which Potency did it give?
**A.** inconclusive: 12.6 µM [inhibitor, full curve]

**Q.** Which Potency does the source give for `C/C(=N\Nc1ccc(C)c(Cl)c1)c1cccnc1` here?
**A.** active: 4.47 µM

**Q.** `O=C(/C(=C/O)N=Nc1ccc(Cl)cc1)c1ccncc1` was tested. Which Potency did it give?
**A.** inconclusive: 44.7 µM [inhibitor, single point]

**Q.** `CN1CCCCC(NC(=O)c2ccccn2)C1=O` (stereo not drawn) was tested. Which Potency did it give?
**A.** inactive

**Q.** For `COc1cc(C#N)ccc1OCc1csc(-c2cccc(OC)c2OC)n1`, which Potency is on record?
**A.** inactive

**Q.** `Cn1c(=O)c(=O)n(C)c2cc(S(=O)(=O)CCC(=O)Nc3cccc(C(F)(F)F)c3)ccc21` was tested. Which Potency did it give?
**A.** inconclusive: 141 µM [inhibitor, partial curve, poor fit]

**Q.** `Cc1nn(CC(=O)Nc2ccc3c(c2)nc(Cn2ccc4ccccc42)n3C)c(=O)c2ccccc12` was tested. Which Potency did it give?
**A.** inactive

**Q.** Which Potency does the source give for `COc1cc(Cl)c(C)cc1NC(=O)COC(=O)CCc1nc2ccccc2c(=O)[nH]1` here?
**A.** inconclusive: 50.1 µM [inhibitor, partial curve, poor fit]

**Q.** `Cc1ccc2sc(N(CCN(C)C)C(=O)c3ccc4ccccc4c3)nc2c1C` was tested. Which Potency did it give?
**A.** inconclusive: 126 µM [inhibitor, single point]

**Q.** How did the Potency turn out when `O=C(Nc1c(-c2ccccc2)nc2sccn12)c1ccc(S(=O)(=O)N2CCOCC2)cc1` was run?
**A.** inactive

**Q.** With `S=c1[nH]nc(-c2ccc3ccccc3n2)n1Cc1ccccc1` as the molecule, how does the Potency read?
**A.** inconclusive: 3.98 µM [inhibitor, full curve]

**Q.** How did the Potency turn out when `COc1ccc(-c2n[nH]c(C)c2-c2cc(OC)ccc2O)cc1` was run?
**A.** inconclusive: 28.2 µM [inhibitor, partial curve, poor fit]

**Q.** `COc1cc(OC)c(N(C)C(=O)C2CCCN(c3ncnc4c3nc3n4CCCCC3)C2)cc1Cl` (stereo not drawn) was tested. Which Potency did it give?
**A.** inconclusive: 3.55 µM [inhibitor, partial curve, poor fit]

**Q.** With `CC(=O)Nc1ccc(NS(=O)(=O)c2ccccc2)c2ccccc12` as the molecule, how does the Potency read?
**A.** inactive

**Q.** For `c1ccc(Nc2cccc3c(Nc4ccccc4)cccc23)cc1`, which Potency is on record?
**A.** inactive

**Q.** `O=C(CCc1cccnc1)Nc1ccc(N2CCOCC2)cn1` was tested. Which Potency did it give?
**A.** inconclusive: 89.1 µM [inhibitor, partial curve, poor fit]

**Q.** `O=C(N/N=C/c1ccc(Cl)cc1Cl)c1n[nH]c2c1CCCC2` was tested. Which Potency did it give?
**A.** inactive

**Q.** With `Cc1c(C(=O)Nc2ccc(S(=O)(=O)N(C)C3CCN(C)CC3)cc2)oc2c(Cl)cccc12` as the molecule, how does the Potency read?
**A.** inconclusive: 39.8 µM [inhibitor, partial curve, poor fit]

**Q.** With `CC1CCCN(Cc2c(O)ccc3c(=O)c(Oc4ccc(C(C)(C)C)cc4)c(C(F)(F)F)oc23)C1` (stereo not drawn) as the molecule, how does the Potency read?
**A.** inconclusive: 44.7 µM [inhibitor, partial curve, poor fit]

**Q.** Which Potency does the source give for `c1ccc(CCc2nn3c(C4COc5ccccc5O4)nnc3s2)cc1` (stereo not drawn) here?
**A.** inconclusive: 11.2 µM [inhibitor, full curve]

**Q.** With `Cc1cccc(C(=O)Nc2cccc(-c3ccc(N4CCN(C)CC4)nn3)c2)c1` as the molecule, how does the Potency read?
**A.** inactive

**Q.** How did the Potency turn out when `Cc1ccc(-c2c[n+](CC(=O)Nc3nc(-c4ccccc4)cs3)c3n2CCC3)cc1` was run?
**A.** inconclusive: 20 µM [inhibitor, full curve, poor fit]

**Q.** With `CCc1cccc(-n2nnnc2N2CCN(C(=O)Nc3ccc(C)c(Br)c3)CC2)c1` as the molecule, how does the Potency read?
**A.** inconclusive: 25.1 µM [inhibitor, partial curve, poor fit]

**Q.** For `CSCC[C@H](NC(=O)[C@@H]1Cc2ccccc2CN1)C(=O)NC[C@H]1CC[C@H](C(=O)O)CC1`, which Potency is on record?
**A.** inconclusive: 1.78 µM [inhibitor, partial curve, poor fit]

**Q.** Which activity change, negative = inhibition does the source give for `CCc1cc(=O)oc2cc(OC(=O)CN3C(=O)NC4(CCCC4)C3=O)ccc12` here?
**A.** inconclusive: -33% [inhibitor]

**Q.** `Cc1ccc2c(C)c(C(=O)N(Cc3ccc(N(C)C)cc3)C3CCS(=O)(=O)C3)oc2c1` (stereo not drawn) was tested. Which Potency did it give?
**A.** inactive

**Q.** `CCOC(=O)CSC(C)C(=O)NCC1CCCCC1` (stereo not drawn) was tested. Which Potency did it give?
**A.** inactive

**Q.** For `CC(C)(C)C(=O)N(Cc1ccc(Cl)cc1)c1cnccn1`, which Potency is on record?
**A.** inactive

**Q.** `CC(C)n1ccnc1CN1CCC2(CCCO2)CCC1=O` (stereo not drawn) was tested. Which Potency did it give?
**A.** inconclusive: 2 µM [inhibitor, full curve]

**Q.** `Cc1cc(NS(=O)(=O)c2ccc(NC(=O)c3ccco3)cc2)nc(C)n1` was tested. Which Potency did it give?
**A.** inactive

**Q.** Which Potency does the source give for `Cc1ccc(C)c(S(=O)(=O)ON2C(=O)c3ccccc3C2=O)c1` here?
**A.** inconclusive: 44.7 µM [inhibitor, partial curve, poor fit]

**Q.** Which Potency does the source give for `O=c1c2cc(Br)ccc2nc(-c2cccc(C(F)(F)F)c2)n1O` here?
**A.** inconclusive: 35.5 µM [inhibitor, single point]

**Q.** Which Potency does the source give for `COc1ccc(C(C)=O)cc1COC(=O)c1ccc(C#N)cc1` here?
**A.** inconclusive: 25.1 µM [inhibitor, single point]

**Q.** How did the Potency turn out when `CCc1ccccc1OCCCOc1ccc(OC)cc1` was run?
**A.** inactive

**Q.** `CCn1cc(CN2CCC3(CC2)CC(O)CCO3)c2cc(OC)ccc21` (stereo not drawn) was tested. Which Potency did it give?
**A.** inactive

**Q.** How did the Potency turn out when `COC(=O)CN(C)C(=O)c1ccc(OC)c(OC2CCN(C(C)C)CC2)c1` was run?
**A.** inactive

**Q.** With `COc1cc(NC(=O)c2cccc(Cl)c2)ccc1NC(=O)c1cccs1` as the molecule, how does the Potency read?
**A.** inactive

**Q.** How did the Potency turn out when `Cc1ccc2nc(-c3ccccc3)c(CC(=O)O)c(C(=O)O)c2c1` was run?
**A.** inconclusive: 44.7 µM [inhibitor, partial curve, poor fit]

**Q.** Which Potency does the source give for `CC(=O)NCCNc1nc(-c2cccnc2)nc2ccccc12` here?
**A.** inconclusive: 39.8 µM [inhibitor, partial curve]

**Q.** Which Potency does the source give for `CS(=O)(=O)c1ccccc1-c1nnc(-c2ccc(Cl)cc2)o1` here?
**A.** inconclusive: 2 µM [inhibitor, full curve, poor fit]

**Q.** For `OCCn1nc(-c2ccncc2)nc1CC12CC3CC(CC(O)(C3)C1)C2`, which Potency is on record?
**A.** inconclusive: 4.47 µM [inhibitor, full curve, poor fit]

**Q.** For `Cc1ccc(S(=O)(=O)NN=C2CC3CCC2(C)C3(C)C)cc1` (stereo not drawn), which Potency is on record?
**A.** inconclusive: 44.7 µM [inhibitor, partial curve, poor fit]

**Q.** Which Potency does the source give for `COCCCNC(=O)c1c(NC(=O)c2cc(=O)c3ccccc3o2)sc2c1CCCC2` here?
**A.** inconclusive: 70.8 µM [inhibitor, partial curve, poor fit]

**Q.** For `CCCNC(=O)C1CN(C(=O)c2nn(-c3ccccc3)c(=O)c3ccccc23)c2ccccc2O1` (stereo not drawn), which Potency is on record?
**A.** inconclusive: 39.8 µM [inhibitor, single point]

**Q.** Which Potency does the source give for `CN(C(=O)Cn1nc(Cc2cccnc2)c2ccccc2c1=O)c1ccc(F)cc1` here?
**A.** inactive

**Q.** Which Potency does the source give for `Cc1ccc(CN2CCCC3(CCC(=O)N(CCc4cnc[nH]4)C3)C2)s1` (stereo not drawn) here?
**A.** inactive

**Q.** How did the Potency turn out when `COc1ccc2c(CNc3ccccc3)cc(=O)oc2c1` was run?
**A.** inconclusive: 22.4 µM [inhibitor, partial curve, poor fit]

**Q.** For `Cc1ccc(S(=O)(=O)n2nc(C)c(S(=O)(=O)N3CCC(C)CC3)c2C)cc1`, which Potency is on record?
**A.** inactive

**Q.** For `O=C1N=C(N2CCCCC2)S/C1=C/C1=Cc2ccccc2OC1`, which Potency is on record?
**A.** inactive

**Q.** Which Potency does the source give for `COc1c(S(=O)(=O)n2nc(C)cc2C)ccc(Cl)c1Cl` here?
**A.** inconclusive: 50.1 µM [inhibitor, partial curve, poor fit]

**Q.** Which Potency does the source give for `O=C1CN(C(=O)Cn2cnc3c(Cl)cc(Cl)cc3c2=O)c2ccccc2N1` here?
**A.** inactive

**Q.** `CSc1ccc(-c2ccnc3nc(N4CCOCC4)[nH]c(=O)c23)cc1` was tested. Which Potency did it give?
**A.** inconclusive: 89.1 µM [inhibitor, single point]

**Q.** `Cc1noc2c(NCC3CCOCC3)cc(-c3ccc(Cl)cc3)nc12` was tested. Which Potency did it give?
**A.** inconclusive: 100 µM [inhibitor, single point]

**Q.** `CN(C)CC(C)(C)CNC(=O)C1CCN(CCCc2ccccc2)CC1` was tested. Which Potency did it give?
**A.** inconclusive: 2 µM [inhibitor, full curve]

**Q.** With `CCC(C)Nc1nc(SC(C(C)=O)C(C)=O)nc(N(C)C)n1` (stereo not drawn) as the molecule, how does the Potency read?
**A.** inconclusive: 0.631 µM [inhibitor, full curve, poor fit]

**Q.** How did the Potency turn out when `S=C(NCc1ccco1)Nc1cc(-c2ccccc2)[nH]n1` was run?
**A.** active: 5.01 µM

**Q.** How did the Potency turn out when `O=C(NNC(=S)NC(=O)c1cccnc1)c1ccccc1` was run?
**A.** inconclusive: 10 µM [inhibitor, partial curve, poor fit]

**Q.** For `CCCNS(=O)(=O)c1cccc(C(=O)Nc2ccc(N3CCCCC3)c3ccncc23)c1`, which Potency is on record?
**A.** inconclusive: 79.4 µM [inhibitor, single point]

— PubChem BioAssay AID1671190 (National Center for Advancing Translational Sciences (NCATS), 2021)
